Construct, isoform or probe ends are uncertain for at least one entry. At least one verdict was read from the data and is not stated in words by the source. Where a protein sequence is shown, tags need not be part of it.
Target: T1, GABPA (human) (UniProt Q06546)
T1 sequence (looked up): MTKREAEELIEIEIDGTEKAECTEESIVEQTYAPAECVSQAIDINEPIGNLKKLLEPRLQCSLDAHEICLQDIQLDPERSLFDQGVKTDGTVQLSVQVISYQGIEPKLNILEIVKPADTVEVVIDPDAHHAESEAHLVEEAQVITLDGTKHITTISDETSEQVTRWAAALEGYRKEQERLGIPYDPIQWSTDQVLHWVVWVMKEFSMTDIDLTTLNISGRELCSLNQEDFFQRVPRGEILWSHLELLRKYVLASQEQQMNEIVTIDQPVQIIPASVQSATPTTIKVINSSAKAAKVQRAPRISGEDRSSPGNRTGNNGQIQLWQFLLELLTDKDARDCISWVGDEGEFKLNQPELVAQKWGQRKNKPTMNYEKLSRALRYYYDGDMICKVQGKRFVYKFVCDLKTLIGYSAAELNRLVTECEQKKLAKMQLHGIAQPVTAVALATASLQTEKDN
Assay: EMSA
Conditions: EMSA conditions not printed (as previously described, ref 5); protein stock in 10 mM Tris pH 7.9, 0.5 mM EDTA, 200 mM KCl, 1 mM DTT, 10% glycerol; recombinant protein; residues 1-454; protein details: N-term 6xHis

## GCCACGGCCCAGGAAGTGACTCACCCACCCTGATG (double strand) [ETS consensus EMSA probe]
  binding result: binds
